Measurements reported in US20250283871A1, “COMPOSITIONS AND METHODS FOR MODULATING THE INTERACTION BETWEEN SS18-SSX FUSION ONCOPROTEIN AND NUCLEOSOMES” (Dana-Farber Cancer Institute, Inc., priority 2020, published 2025).

B1: NKTR (protein, UniProt P30414 1-1462, looked up)
NK-tumor recognition protein: MGAQDRPQCHFDIEINREPVGRIMFQLFSDICPKTCKNFLCLCSGEKGLGKTTGKKLCYKGSTFHRVVKNFMIQGGDFSEGNGKGGESIYGGYFKDENFILKHDRAFLLSMANRGKHTNGSQFFITTKPAPHLDGVHVVFGLVISGFEVIEQIENLKTDAASRPYADVRVIDCGVLATKSIKDVFEKKRKKPTHSEGSDSSSNSSSSSESSSESELEHERSRRRKHKRRPKVKRSKKRRKEASSSEEPRNKHAMNPKGHSERSDTNEKRSVDSSAKREKPVVRPEEIPPVPENRFLLRRDMPVVTAEPEPKIPDVAPIVSDQKPSVSKSGRKIKGRGTIRYHTPPRSRSCSESDDDDSSETPPHWKEEMQRLRAYRPPSGEKWSKGDKLSDPCSSRWDERSLSQRSRSWSYNGYYSDLSTARHSGHHKKRRKEKKVKHKKKGKKQKHCRRHKQTKKRRILIPSDIESSKSSTRRMKSSCDRERSSRSSSLSSHHSSKRDWSKSDKDVQSSLTHSSRDSYRSKSHSQSYSRGSSRSRTASKSSSHSRSRSKSRSSSKSGHRKRASKSPRKTASQLSENKPVKTEPLRATMAQNENVVVQPVVAENIPVIPLSDSPPPSRWKPGQKPWKPSYERIQEMKAKTTHLLPIQSTYSLANIKETGSSSSYHKREKNSESDQSTYSKYSDRSSESSPRSRSRSSRSRSYSRSYTRSRSLASSHSRSRSPSSRSHSRNKYSDHSQCSRSSSYTSISSDDGRRAKRRLRSSGKKNSVSHKKHSSSSEKTLHSKYVKGRDRSSCVRKYSESRSSLDYSSDSEQSSVQATQSAQEKEKQGQMERTHNKQEKNRGEEKSKSERECPHSKKRTLKENLSDHLRNGSKPKRKNYAGSKWDSESNSERDVTKNSKNDSHPSSDKEEGEATSDSESEVSEIHIKVKPTTKSSTNTSLPDDNGAWKSSKQRTSTSDSEGSCSNSENNRGKPQKHKHGSKENLKREHTKKVKEKLKGKKDKKHKAPKRKQAFHWQPPLEFGEEEEEEIDDKQVTQESKEKKVSENNETIKDNILKTEKSSEEDLSGKHDTVTVSSDLDQFTKDDSKLSISPTALNTEENVACLQNIQHVEESVPNGVEDVLQTDDNMEICTPDRSSPAKVEETSPLGNARLDTPDINIVLKQDMATEHPQAEVVKQESSMSESKVLGEVGKQDSSSASLASAGESTGKKEVAEKSQINLIDKKWKPLQGVGNLAAPNAATSSAVEVKVLTTVPEMKPQGLRIEIKSKNKVRPGSLFDEVRKTARLNRRPRNQESSSDEQTPSRDDDSQSRSPSRSRSKSETKSRHRTRSVSYSHSRSRSRSSTSSYRSRSYSRSRSRGWYSRGRTRSRSSSYRSYKSHRTSSRSRSRSSSYDPHSRSRSYTYDSYYSRSRSRSRSQRSDSYHRGRSYNRRSRSCRSYGSDSESDRSYSHHRSPSESSRYS
B2: CYC1 (protein, UniProt P08574 85-325, looked up)
Cytochrome c1, heme protein, …: SDLELHPPSYPWSHRGLLSSLDHTSIRRGFQVYKQVCASCHSMDFVAYRHLVGVCYTEDEAKELAAEVEVQDGPNEDGEMFMRPGKLFDYFPKPYPNSEAARAANNGALPPDLSYIVRARHGGEDYVFSLLTGYCEPPTGVSLREGLYFNPYFPGQAIAMAPPIYTDVLEFDDGTPATMSQIAKDVCTFLRWASEPEHDHRKRMGLKMLMMMALLVPLVYTIKRHKWSVLKSRKLAYRPPK
B3: MIS18BP1 (protein, UniProt Q6P0N0 1-1132, looked up)
Mis18-binding protein 1: MIATPLKHSRIYLPPEASSQRRNLPMDAIFFDSIPSGTLTPVKDLVKYQNSSLKLNDHKKNQFLKMTTFNNKNIFQSTMLTEATTSNSSLDISAIKPNKDGLKNKANYESPGKIFLRMKEKVLRDKQEQPSRNSSLLEPQKSGNNETFTPNRVEKKKLQHTYLCEEKENNKSFQSDDSSLRASVQGVPLESSNNDIFLPVKQKIQCQQEKKAPLHNLTYELPTLNQEQENFLAVEARNKTLTRAQLAKQIFHSKESIVATTKSKKDTFVLESVDSADEQFQNTNAETLSTNCIPIKNGSLLMVSDSERTTEGTSQQKVKEGNGKTVPGETGLPGSMKDTCKIVLATPRLHITIPRRSKRNISKLSPPRIFQTVTNGLKKNQVVQLQEWMIKSINNNTAICVEGKLIDVTNIYWHSNVIIERIEHNKLRTISGNVYILKGMIDQISMKEAGYPNYLIRKFMFGFPENWKEHIDNFLEQLRAGEKNREKTKQKQKTGRSVRDIRKSMKNDARENQTDTAQRATTTYDFDCDNLELKSNKHSESPGATELNMCHSNCQNKPTLRFPDDQVNNTIQNGGGDDLSNQELIGKKEYKMSSKKLKIGERTNERIIKSQKQETTEELDVSIDILTSREQFFSDEERKYMAINQKKAYILVTPLKSRKVIEQRCMRYNLSAGTIKAVTDFVIPECQKKSPISKSMGTLENTFEGHKSKNKEDCDERDLLTVNRKIKISNLEKEQMLTSDFKKNTRLLPKLKKIENQVAMSFYKHQSSPDLSSEESETEKEIKRKAEVKKTKAGNTKEAVVHLRKSTRNTSNIPVILEPETEESENEFYIKQKKARPSVKETLQKSGVRKEFPITEAVGSDKTNRHPLECLPGLIQDKEWNEKELQKLHCAFASLPKHKPGFWSEVAAAVGSRSPEECQRKYMENPRGKGSQKHVTKKKPANSKGQNGKRGDADQKQTIKITAKVGTLKRKQQMREFLEQLPKDDHDDFFSTTPLQHQRILLPSFQDSEDDDDILPNMDKNPTTPSSVIFPLVKTPQCQHVSPGMLGSINRNDCDKYVFRMQKYHKSNGGIVWGNIKKKLVETDFSTPTPRRKTPFNTDLGENSGIGKLFTNAVESLDEEEKDYYFSNSDSA
B4: SF3B1 (protein)
chain: MAKIAKTHEDIEAQIREIQGKKAALDEAQGVGLDSTGYYDQEIYGGSDSRFAGYVTSIAATELEDDDDDYSSSTSLLGQKKPGYHAPVALLNDIPQSTEQYDPFAEHRPPKIADREDEYKKHRRTMIISPERLDPFADGGKTPDPKMNARTYMDVMREQHLTKEEREIRQQLAEKAKAGELKVVNGAAASQPPSKRKRRWDQTADQTPGATPKKLSSWDQAETPGHTPSLRWDETPGRAKGSETPGATPGSKIWDPTPSHTPAGAATPGRGDTPGHATPGHGGATSSARKNRWDETPKTERDTPGHGSGWAETPRTDRGGDSIGETPTPGASKRKSRWDETPASQMGGSTPVLTPGKTPIGTPAMNMATPTPGHIMSMTPEQLQAWRWEREIDERNRPLSDEELDAMFPEGYKVLPPPAGYVPIRTPARKLTATPTPLGGMTGFHMQTEDRTMKSVNDQPSGNLPFLKPDDIQYFDKLLVDVDESTLSPEEQKERKIMKLLLKIKNGTPPMRKAALRQITDKAREFGAGPLFNQILPLLMSPTLEDQERHLLVKVIDRILYKLDDLVRPYVHKILVVIEPLLIDEDYYARVEGREIISNLAKAAGLATMISTMRPDIDNMDEYVRNTTARAFAVVASALGIPSLLPFLKAVCKSKKSWQARHTGIKIVQQIAILMGCAILPHLRSLVEIIEHGLVDEQQKVRTISALAIAALAEAATPYGIESFDSVLKPLWKGIRQHRGKGLAAFLKAIGYLIPLMDAEYANYYTREVMLILIREFQSPDEEMKKIVLKVVKQCCGTDGVEANYIKTEILPPFFKHFWQHRMALDRRNYRQLVDTTVELANKVGAAEIISRIVDDLKDEAEQYRKMVMETIEKIMGNLGAADIDHKLEEQLIDGILYAFQEQTTEDSVMLNGFGTVVNALGKRVKPYLPQICGTVLWRLNNKSAKVRQQAADLISRTAVVMKTCQEEKLMGHLGVVLYEYLGEEYPEVLGSILGALKAIVNVIGMHKMTPPIKDLLPRLTPILKNRHEKVQENCIDLVGRIADRGAEYVSAREWMRICFELLELLKAHKKAIRRATVNTFGYIAKAIGPHDVLATLLNNLKVQERQNRVCTTVAIAIVAETCSPFTVLPALMNEYRVPELNVQNGVLKSLSFLFEYIGEMGKDYIYAVTPLLEDALMDRDLVHRQTASAVVQHMSLGVYGFGCEDSLNHLLNYVWPNVFETSPHVIQAVMGALEGLRVAIGPCRMLQYCLQGLFHPARKVRDVYWKIYNSIYIGSQDALIAHYPRIYNDDKNTYIRYELDYIL
B5: ATF3 (protein, UniProt P18847 1-181, looked up)
Cyclic AMP-dependent …: MMLQHPGQVSASEVSASAIVPCLSPPGSLVFEDFANLTPFVKEELRFAIQNKHLCHRMSSALESVTVSDRPLGVSITKAEVAPEEDERKKRRRERNKIAAAKCRNKKKEKTECLQKESEKLESVNAELKAQIEELKNEKQHLIYMLNLHRPTCIVRAQNGRTPEDERNLFIQQIKEGTLQS
B6: RBM28 (protein, UniProt Q9NW13 2-759, looked up)
RNA-binding protein 28: AGLTLFVGRLPPSARSEQLEELFSQVGPVKQCFVVTEKGSKACRGFGYVTFSMLEDVQRALKEITTFEGCKINVTVAKKKLRNKTKEKGKNENSECPKKEPKAKKAKVADKKARLIIRNLSFKCSEDDLKTVFAQFGAVLEVNIPRKPDGKMRGFGFVQFKNLLEAGKALKGMNMKEIKGRTVAVDWAVAKDKYKDTQSVSAIGEEKSHESKHQESVKKKGREEEDMEEEENDDDDDDDDEEDGVFDDEDEEEENIESKVTKPVQIQKRAVKRPAPAKSSDHSEEDSDLEESDSIDDGEELAQSDTSTEEQEDKAVQVSNKKKRKLPSDVNEGKTVFIRNLSFDSEEEELGELLQQFGELKYVRIVLHPDTEHSKGCAFAQFMTQEAAQKCLLAASPENEAGGLKLDGRQLKVDLAVTRDEAAKLQTTKVKKPTGTRNLYLAREGLIRAGTKAAEGVSAADMAKRERFELLKHQKLKDQNIFVSRTRLCLHNLPKAVDDKQLRKLLLSATSGEKGVRIKECRVMRDLKGVHGNMKGQSLGYAFAEFQEHEHALKALRLINNNPEIFGPLKRPIVEFSLEDRRKLKMKELRIQRSLQKMRSKPATGEPQKGQPEPAKDQQQKAAQHHTEEQSKVPPEQKRKAGSTSWTGFQTKAEVEQVELPDGKKRRKVLALPSHRGPKIRLRDKGKVKPVHPKKPKPQINQWKQEKQQLSSEQVSRKKAKGNKTETRFNQLVEQYKQKLLGPSKGAPLAKRSKWFDS

Tested on: BAF complex subunits and histone proteins
Assay: Mass spectrometry proteomics of purified HA-SS18 WT and HA-SS18-SSX1 complexes (Tables 5A-5E)
Parameters: species or system human
Details: for Total / Unique: HA-SS18SSX1_CHR_peptides; for Total: total peptides of the identified protein; for Unique: unique peptides of the identified protein
[1] = HA-SS18SSX1_NE_peptides: protein co-purified with HA-SS18-SSX1 BAF complexes from soluble nuclear extract (NE), HEK-293T cells
[2] = HA-SS18WT_CHR_peptides: protein identified in HA-SS18 WT BAF complex purification from nuclease-treated solubilized chromatin (CHR), HEK-293T
[3] = HA-SS18WT_CHR_peptides: HA-SS18 WT purification from nuclease-treated solubilized chromatin (CHR), HEK-293T, label = protein identified
[4] = HA-SS18SSX1_CHR_peptides: protein identified in the HA-SS18-SSX1 purification from solubilized chromatin (CHR), HEK-293T
[5] = HA-SS18WT_NE_peptides: HA-SS18 WT complexes purified from nuclear extract (NE), HEK-293T, label = protein identified (Gene Symbol)

Molecule | Total | Unique | Total (peptides) [1] | Unique (peptides) [1] | Total (total peptides) [2] | Unique (unique peptides) [2] | Total (peptides) [3] | Unique (peptides) [3] | Total (total peptides) [4] | Unique (unique peptides) [4] | Total (peptides) [5] | Unique (peptides) [5]
B1 | 2 | 2 | – | – | – | – | – | – | – | – | – | –
B2 | 2 | 2 | 2 | 2 | 2 | 2 | – | – | – | – | – | –
B3 | 2 | 2 | – | – | – | – | 3 | 3 | – | – | – | –
B4 | – | – | 1 | 1 | – | – | 15 | 15 | 28 | 27 | 3 | 3
B5 | 2 | 2 | – | – | – | – | – | – | – | – | – | –
B6 | 2 | 2 | – | – | 2 | 2 | – | – | – | – | – | –
